Source: publication PMC4510971
These are yes or no findings as the source states them, for the method shown. Some entries that bind do so weakly or less than the wild type.

Chains of the proteins cited; added tags and fusions are not shown. Lines headed by an entry give the natural chain unless they say otherwise; changes in a name come on top. A line that says so, or that is headed by a name, gives the form on record, which may keep a tag or linker. Residues count along the entry.
UniProt Q9NPG3: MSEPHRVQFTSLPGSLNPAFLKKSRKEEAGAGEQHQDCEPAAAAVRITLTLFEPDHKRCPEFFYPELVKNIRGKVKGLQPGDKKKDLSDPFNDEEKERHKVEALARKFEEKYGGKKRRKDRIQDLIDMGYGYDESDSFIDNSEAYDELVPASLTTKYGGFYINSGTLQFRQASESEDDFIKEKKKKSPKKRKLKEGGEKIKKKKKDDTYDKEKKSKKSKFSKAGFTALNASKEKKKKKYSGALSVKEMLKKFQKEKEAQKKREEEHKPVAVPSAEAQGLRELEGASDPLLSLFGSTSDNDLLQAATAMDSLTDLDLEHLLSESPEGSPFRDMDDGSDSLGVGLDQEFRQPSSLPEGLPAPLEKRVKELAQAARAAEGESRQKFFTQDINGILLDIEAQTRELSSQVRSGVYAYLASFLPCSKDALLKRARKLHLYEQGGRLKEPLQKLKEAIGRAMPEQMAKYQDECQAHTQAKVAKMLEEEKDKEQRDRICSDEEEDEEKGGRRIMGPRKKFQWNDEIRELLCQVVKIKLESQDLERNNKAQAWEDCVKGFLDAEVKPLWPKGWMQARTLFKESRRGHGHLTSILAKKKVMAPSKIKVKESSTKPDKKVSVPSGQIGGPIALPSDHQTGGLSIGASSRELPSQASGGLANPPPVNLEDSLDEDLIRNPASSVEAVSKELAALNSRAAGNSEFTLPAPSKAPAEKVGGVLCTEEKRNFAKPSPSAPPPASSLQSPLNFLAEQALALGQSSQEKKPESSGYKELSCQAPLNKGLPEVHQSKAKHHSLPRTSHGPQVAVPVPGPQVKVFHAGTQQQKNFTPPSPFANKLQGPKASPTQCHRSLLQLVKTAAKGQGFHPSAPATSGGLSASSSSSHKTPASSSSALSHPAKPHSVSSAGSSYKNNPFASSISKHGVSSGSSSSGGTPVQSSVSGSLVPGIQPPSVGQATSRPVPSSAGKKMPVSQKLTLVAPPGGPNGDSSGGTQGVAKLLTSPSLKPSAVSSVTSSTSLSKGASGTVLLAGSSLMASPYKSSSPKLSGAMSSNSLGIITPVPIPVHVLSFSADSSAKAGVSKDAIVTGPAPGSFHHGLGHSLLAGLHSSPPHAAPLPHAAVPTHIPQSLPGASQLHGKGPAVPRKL
GST-UBN1(41–175): residues 41-175 of Q9NPG3
UBN1(FL) FID138-140AAA (Q9NPG3, form named): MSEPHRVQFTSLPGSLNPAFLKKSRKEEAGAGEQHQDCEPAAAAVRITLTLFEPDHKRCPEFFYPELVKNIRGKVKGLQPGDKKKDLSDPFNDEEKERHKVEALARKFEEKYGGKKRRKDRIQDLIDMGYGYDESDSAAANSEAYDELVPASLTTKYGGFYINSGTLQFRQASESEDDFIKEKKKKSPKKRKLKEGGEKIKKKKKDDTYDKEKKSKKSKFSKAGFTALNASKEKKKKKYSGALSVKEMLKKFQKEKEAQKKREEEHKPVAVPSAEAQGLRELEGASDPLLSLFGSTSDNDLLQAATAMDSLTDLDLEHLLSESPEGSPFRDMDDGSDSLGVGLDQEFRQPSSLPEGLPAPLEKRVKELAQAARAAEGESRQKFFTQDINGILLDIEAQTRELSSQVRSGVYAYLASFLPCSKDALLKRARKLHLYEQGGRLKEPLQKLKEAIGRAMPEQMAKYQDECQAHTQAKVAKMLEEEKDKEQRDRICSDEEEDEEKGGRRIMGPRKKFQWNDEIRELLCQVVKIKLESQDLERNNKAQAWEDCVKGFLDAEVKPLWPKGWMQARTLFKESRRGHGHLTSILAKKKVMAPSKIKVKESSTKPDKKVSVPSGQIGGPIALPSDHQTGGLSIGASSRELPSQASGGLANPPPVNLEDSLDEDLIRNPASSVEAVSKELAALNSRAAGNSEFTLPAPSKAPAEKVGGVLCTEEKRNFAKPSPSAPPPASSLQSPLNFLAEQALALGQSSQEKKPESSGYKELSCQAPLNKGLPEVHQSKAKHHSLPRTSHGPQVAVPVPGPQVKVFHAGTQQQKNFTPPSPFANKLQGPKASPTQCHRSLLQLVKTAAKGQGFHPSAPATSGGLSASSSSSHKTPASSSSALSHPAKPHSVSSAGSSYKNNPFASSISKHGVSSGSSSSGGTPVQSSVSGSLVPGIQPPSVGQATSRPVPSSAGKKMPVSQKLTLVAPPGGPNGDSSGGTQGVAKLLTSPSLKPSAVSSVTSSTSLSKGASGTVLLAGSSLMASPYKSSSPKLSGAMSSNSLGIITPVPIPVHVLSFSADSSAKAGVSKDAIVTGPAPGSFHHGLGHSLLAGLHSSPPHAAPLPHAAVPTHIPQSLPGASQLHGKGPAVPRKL
UniProt P54198: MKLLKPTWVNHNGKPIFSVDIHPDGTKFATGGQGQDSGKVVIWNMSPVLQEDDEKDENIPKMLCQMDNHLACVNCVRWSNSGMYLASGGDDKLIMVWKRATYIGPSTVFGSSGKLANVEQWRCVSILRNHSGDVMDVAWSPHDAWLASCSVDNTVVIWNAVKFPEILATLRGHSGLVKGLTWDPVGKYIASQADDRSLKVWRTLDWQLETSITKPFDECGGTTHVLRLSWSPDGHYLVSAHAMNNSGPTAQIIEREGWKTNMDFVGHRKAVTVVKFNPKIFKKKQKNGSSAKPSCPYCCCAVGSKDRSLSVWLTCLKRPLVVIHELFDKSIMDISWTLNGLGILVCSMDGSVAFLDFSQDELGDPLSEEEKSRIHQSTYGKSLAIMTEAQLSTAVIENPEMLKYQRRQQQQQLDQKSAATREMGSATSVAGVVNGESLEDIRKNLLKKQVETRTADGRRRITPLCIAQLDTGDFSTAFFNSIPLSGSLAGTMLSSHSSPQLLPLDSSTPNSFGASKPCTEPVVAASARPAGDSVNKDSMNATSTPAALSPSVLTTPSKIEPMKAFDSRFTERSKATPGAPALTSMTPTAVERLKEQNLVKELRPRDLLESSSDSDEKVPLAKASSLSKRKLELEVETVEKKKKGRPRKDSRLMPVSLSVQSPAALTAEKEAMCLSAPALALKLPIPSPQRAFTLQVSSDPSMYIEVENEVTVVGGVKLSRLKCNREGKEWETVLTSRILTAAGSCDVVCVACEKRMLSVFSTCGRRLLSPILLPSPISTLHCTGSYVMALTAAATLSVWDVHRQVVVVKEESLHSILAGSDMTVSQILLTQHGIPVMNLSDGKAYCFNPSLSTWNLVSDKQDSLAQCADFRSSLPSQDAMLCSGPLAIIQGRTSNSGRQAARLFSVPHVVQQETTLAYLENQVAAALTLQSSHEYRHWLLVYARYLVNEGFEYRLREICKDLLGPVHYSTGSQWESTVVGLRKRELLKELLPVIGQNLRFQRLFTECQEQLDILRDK

Key:
GST-UBN1(41–175) (human) = GST-UBN1(41–175) (human) (UniProt Q9NPG3); experiment: co-purification on glutathione agarose; co-expressed in Sf9; lysate in PBS bound to glutathione agarose through GST-UBN1(41–175), eluted, ion exchange
HIRA-FLAG(FL) (human) = HIRA-FLAG(FL) (human) (UniProt P54198); experiment: co-purification on ANTI-FLAG M2 affinity gel; co-expressed in Sf9; lysate in 20 mM Tris pH 8.0, 500 mM NaCl bound to the gel through HIRA-FLAG, washed with 60 column volumes

Substance | binding (GST-UBN1(41–175) (human)) | binding (HIRA-FLAG(FL) (human))
HIRA(1–405) (from UniProt P54198 1-405) (domain or fragment) | binds | 
UBN1(FL) (from UniProt Q9NPG3 1-1134) |  | binds
UBN1(FL) FID138-140AAA (from UniProt Q9NPG3 1-1134) |  | binds
